Reference: the supplement of paper PMC12067093, “Discovery and optimisation of a covalent ligand for TRIM25 and its application to targeted protein ubiquitination” (Chemical Science, 2025)
This is one part of the list.

Amino acid sequences for entries named in this document (tags omitted). A change or cut given only in a name is not applied to a line headed by its entry.
UniProt Q7Z2E3: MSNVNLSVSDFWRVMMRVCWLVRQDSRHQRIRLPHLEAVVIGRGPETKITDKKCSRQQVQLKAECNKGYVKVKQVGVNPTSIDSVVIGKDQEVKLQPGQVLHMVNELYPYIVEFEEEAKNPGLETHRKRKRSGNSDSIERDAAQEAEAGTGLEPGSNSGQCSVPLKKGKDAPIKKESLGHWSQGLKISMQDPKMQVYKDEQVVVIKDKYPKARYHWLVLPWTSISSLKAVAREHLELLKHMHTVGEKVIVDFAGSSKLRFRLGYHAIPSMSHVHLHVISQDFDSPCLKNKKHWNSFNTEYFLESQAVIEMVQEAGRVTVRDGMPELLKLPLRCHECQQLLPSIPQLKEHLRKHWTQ
UniProt P62330: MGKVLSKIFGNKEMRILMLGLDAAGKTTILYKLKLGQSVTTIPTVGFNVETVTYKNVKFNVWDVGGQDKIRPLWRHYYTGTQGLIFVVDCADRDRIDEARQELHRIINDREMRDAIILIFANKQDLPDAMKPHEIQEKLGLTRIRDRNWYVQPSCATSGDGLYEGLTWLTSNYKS
UniProt Q6ZSZ5: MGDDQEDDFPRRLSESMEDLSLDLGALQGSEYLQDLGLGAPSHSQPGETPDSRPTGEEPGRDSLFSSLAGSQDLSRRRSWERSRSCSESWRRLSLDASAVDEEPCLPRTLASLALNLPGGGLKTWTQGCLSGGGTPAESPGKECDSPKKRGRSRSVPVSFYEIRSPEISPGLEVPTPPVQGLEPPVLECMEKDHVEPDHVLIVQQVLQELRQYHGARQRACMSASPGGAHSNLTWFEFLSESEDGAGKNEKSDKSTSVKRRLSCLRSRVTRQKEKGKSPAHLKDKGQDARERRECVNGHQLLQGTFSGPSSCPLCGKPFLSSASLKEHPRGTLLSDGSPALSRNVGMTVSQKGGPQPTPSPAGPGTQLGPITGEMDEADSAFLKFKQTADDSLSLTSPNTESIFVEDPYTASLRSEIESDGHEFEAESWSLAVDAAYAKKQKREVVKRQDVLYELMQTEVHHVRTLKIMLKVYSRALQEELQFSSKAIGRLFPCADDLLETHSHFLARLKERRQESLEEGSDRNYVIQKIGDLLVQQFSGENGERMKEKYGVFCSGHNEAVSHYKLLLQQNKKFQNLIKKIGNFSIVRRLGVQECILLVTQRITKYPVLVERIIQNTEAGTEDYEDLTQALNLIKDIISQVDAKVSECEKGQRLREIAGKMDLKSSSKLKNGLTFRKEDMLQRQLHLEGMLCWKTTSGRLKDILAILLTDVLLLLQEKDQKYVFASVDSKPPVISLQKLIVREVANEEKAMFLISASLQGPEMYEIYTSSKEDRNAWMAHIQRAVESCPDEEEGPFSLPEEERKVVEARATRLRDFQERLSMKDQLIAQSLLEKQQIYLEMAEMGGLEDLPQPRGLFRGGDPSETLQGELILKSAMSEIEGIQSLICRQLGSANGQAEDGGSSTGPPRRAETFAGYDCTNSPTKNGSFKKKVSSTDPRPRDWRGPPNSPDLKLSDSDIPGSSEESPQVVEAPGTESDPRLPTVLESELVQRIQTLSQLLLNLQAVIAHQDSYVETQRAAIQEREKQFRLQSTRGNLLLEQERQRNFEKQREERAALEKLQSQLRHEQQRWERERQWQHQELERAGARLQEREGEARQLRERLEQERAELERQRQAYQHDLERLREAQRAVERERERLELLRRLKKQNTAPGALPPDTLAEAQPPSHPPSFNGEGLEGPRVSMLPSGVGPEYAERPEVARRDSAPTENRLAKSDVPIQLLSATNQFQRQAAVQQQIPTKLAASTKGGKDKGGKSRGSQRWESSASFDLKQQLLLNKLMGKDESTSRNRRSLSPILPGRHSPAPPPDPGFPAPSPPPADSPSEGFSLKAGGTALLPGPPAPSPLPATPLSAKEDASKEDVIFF
UniProt P52566: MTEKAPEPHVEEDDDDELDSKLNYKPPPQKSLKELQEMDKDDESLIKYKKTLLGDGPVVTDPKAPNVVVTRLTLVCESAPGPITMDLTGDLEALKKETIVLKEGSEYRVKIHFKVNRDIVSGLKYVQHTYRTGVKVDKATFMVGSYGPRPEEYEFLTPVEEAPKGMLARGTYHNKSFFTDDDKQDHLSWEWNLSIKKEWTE
UniProt Q6P4F7: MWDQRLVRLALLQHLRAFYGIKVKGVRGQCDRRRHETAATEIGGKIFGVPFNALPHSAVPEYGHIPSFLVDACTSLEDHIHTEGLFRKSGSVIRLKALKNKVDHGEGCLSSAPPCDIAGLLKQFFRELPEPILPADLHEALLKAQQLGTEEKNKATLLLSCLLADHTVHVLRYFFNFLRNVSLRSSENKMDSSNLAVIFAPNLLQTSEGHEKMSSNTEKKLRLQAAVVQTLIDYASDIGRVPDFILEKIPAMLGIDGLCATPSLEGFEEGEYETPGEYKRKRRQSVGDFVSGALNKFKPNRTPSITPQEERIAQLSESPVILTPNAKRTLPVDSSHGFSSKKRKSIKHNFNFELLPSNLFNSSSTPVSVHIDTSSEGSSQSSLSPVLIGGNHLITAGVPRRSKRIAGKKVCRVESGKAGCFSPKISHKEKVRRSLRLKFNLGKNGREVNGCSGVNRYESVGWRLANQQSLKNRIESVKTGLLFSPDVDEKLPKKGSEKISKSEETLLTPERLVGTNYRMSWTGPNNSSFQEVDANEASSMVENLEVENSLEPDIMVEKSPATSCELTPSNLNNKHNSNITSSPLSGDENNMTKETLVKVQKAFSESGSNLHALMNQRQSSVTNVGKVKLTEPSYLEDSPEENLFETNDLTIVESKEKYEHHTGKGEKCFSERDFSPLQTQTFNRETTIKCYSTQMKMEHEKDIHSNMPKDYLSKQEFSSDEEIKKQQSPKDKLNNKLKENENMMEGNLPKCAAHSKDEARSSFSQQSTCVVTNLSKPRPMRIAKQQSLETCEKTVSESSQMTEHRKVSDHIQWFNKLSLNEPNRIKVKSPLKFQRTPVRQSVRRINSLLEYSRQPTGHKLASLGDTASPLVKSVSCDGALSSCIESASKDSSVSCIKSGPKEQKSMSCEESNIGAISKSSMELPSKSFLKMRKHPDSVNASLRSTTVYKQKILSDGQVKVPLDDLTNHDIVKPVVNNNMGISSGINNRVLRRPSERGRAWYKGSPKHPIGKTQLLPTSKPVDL
UniProt Q07960: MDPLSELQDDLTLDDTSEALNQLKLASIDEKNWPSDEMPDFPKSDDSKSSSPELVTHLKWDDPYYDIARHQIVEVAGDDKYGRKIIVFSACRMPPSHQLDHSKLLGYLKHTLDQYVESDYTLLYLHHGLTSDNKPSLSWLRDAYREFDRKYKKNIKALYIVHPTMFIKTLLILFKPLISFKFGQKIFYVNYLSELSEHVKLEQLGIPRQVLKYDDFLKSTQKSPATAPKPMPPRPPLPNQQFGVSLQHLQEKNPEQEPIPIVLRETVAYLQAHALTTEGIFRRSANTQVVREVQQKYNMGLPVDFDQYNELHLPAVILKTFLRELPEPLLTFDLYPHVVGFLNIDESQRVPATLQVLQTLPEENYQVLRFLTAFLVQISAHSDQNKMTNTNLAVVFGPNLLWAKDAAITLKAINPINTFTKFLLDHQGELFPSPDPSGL
UniProt O95376: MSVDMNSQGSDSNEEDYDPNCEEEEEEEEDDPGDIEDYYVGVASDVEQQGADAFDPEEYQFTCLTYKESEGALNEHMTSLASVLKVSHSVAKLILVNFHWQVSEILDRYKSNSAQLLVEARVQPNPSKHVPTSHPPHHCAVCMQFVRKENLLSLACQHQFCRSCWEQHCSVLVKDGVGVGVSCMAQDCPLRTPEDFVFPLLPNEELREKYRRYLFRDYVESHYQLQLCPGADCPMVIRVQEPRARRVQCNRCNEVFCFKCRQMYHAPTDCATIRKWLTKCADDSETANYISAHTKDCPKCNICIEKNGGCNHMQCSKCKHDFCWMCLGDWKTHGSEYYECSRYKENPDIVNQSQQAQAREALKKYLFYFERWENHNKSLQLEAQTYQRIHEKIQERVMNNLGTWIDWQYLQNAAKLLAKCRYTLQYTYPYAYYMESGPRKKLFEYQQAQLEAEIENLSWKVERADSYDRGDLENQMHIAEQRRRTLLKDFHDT
UniProt P36405: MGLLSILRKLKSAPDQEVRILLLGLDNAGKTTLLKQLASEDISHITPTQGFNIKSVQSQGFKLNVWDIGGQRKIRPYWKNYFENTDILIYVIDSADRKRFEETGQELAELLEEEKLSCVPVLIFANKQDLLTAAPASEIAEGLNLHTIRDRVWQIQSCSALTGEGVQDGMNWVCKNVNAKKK
UniProt Q66PJ3: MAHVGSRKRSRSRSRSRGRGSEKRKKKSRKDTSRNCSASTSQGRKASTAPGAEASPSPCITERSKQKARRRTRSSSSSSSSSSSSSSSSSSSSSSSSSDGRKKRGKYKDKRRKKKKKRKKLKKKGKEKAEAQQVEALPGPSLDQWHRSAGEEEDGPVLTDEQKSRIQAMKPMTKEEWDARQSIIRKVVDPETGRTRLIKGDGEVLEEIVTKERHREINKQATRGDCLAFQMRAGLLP
UniProt P05067, whole entry, looked up: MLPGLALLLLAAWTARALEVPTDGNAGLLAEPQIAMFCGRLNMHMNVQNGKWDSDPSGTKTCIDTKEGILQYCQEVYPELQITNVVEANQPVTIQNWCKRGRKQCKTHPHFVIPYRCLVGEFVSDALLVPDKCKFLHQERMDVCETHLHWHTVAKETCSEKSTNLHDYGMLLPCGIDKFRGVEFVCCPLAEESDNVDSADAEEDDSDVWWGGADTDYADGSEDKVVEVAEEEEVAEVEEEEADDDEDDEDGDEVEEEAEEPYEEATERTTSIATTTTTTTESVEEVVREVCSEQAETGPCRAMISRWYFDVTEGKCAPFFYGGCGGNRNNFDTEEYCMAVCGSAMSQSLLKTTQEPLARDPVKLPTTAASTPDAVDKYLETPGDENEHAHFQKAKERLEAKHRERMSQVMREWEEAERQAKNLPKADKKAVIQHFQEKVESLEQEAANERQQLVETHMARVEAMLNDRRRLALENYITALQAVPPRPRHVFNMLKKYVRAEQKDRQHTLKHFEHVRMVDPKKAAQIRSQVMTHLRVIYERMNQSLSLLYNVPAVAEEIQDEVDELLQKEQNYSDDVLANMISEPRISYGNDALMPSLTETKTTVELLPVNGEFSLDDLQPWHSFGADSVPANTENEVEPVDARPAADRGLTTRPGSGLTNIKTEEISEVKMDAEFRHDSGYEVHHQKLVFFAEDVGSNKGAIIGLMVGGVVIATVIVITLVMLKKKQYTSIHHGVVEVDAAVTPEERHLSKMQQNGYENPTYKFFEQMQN
UniProt Q9Y4X5: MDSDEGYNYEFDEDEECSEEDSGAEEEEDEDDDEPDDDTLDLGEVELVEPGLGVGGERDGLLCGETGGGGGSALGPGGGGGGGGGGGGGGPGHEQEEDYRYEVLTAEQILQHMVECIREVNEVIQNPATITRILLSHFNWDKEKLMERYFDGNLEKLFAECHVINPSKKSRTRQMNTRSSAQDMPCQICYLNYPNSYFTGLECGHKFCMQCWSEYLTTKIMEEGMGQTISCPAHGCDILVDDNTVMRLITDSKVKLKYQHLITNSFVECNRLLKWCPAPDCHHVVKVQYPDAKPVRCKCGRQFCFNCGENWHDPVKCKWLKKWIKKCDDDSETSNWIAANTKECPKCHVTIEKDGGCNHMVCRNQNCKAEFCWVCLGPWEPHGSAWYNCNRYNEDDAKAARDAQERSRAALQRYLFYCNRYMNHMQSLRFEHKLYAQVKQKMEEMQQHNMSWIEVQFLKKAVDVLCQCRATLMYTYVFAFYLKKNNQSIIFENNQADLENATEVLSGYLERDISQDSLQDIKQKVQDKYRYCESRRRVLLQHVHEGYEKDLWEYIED
UniProt P42331: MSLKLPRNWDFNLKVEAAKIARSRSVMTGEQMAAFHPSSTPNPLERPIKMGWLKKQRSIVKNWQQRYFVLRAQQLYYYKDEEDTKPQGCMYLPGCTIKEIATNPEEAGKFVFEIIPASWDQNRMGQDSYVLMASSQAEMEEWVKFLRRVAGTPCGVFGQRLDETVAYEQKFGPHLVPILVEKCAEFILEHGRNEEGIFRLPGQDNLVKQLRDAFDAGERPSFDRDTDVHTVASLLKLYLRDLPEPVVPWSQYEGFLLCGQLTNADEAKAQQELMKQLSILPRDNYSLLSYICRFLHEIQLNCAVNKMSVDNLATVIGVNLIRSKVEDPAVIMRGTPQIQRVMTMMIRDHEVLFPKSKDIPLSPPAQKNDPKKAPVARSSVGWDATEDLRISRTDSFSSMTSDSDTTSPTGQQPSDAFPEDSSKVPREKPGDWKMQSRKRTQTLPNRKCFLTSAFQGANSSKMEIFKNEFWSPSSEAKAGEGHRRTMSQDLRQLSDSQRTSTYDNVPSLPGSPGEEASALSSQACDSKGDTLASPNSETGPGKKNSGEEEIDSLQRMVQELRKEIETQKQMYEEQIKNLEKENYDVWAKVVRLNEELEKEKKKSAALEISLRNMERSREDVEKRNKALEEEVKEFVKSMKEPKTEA

Compound: CC1Cc2ccccc2N1C(=O)C1CCCN(C1)C(=O)CCl (mixture of isomers) [TRIM25 ligand 11 (diastereomer mixture)]
Assay: probe-labelled cysteine peptide fold change vs DMSO (competition) (log2 fold change); higher = less target engagement (more negative = stronger competition)
Conditions: THP-1, incubation time: 4 h
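Also: competitive chemoproteomic profiling in live THP-1 cells with an iodoacetamide desthiobiotin (IA-DTB) probe, comparing probe-labelled peptide intensities in compound-treated cells against DMSO-treated controls.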

Target | probe-labelled cysteine peptide fold change (10 µM) | probe-labelled cysteine peptide fold change (50 µM)
APTX_Q7Z2E3_333_CHECQQLLPSIPQLK (UniProt Q7Z2E3) | -0.088 | -0.0506
ARF6_P62330_90_HYYTGTQGLIFVVDCADRDRIDEAR (UniProt P62330) | -0.368 | 0.0425
ARHGEF18_Q6ZSZ5_105_RLSLDASAVDEEPCLPR (UniProt Q6ZSZ5) | -0.123 | 0.116
ARCN1_P48444_441_RNTLEWCLPVIDAK (UniProt P48444) | -0.0146 | 0.00634
AQR_O60306_96_AYLMSICCMVNEK (UniProt O60306) | -0.074 | 0.0351
ARMC1_Q9NVT9_40_AIVQDQGCLPGLILFMDHPNPPVVHSALLALR (UniProt Q9NVT9) | -0.016 | -0.119
ARHGDIB_P52566_76_LTLVCESAPGPITMDLTGDLEALK (UniProt P52566) | -0.0301 | 0.105
ARHGAP11A_Q6P4F7_451_EVNGCSGVNR (UniProt Q6P4F7) | -0.0271 | -0.137
ARHGEF18_Q6ZSZ5_692_QLHLEGMLCWK (UniProt Q6ZSZ5) | -0.154 | -0.024
ARHGAP1_Q07960_91_KIIVFSACR (UniProt Q07960) | -0.223 | -0.138
ARID2_Q68CP9_82_SCSNAAFALK (UniProt Q68CP9) | -0.0553 | -0.173
ARAP1_Q96P48_900_AVFPEGPCEEPLQLR (UniProt Q96P48) | -0.0195 | -0.149
ARIH2_O95376_270_QMYHAPTDCATIR (UniProt O95376) | 0.073 | 0.145
ARL3_P36405_118_LSCVPVLIFANK (UniProt P36405) | -0.0334 | -0.0537
ARL6IP4_Q66PJ3_243_ASTAPGAEASPSPCITER (UniProt Q66PJ3) | -0.00569 | 0.0914
ARHGAP9_Q9BRR9_542_DQVFGCQLESLCQR (UniProt Q9BRR9) | 0.0968 | -0.0738
APP_P05067_117_CLVGEFVSDALLVPDK (UniProt P05067) | -0.171 | -0.204
ARIH2_O95376_183_DGVGVGVSCMAQDCPLR (UniProt O95376) | -0.227 | 0.0391
ARHGAP1_Q07960_91_IIVFSACR (UniProt Q07960) | -0.111 | 0.0117
ARHGEF40_Q8TER5_636_LLILIHDDLPTELCGFQGAEVLSENDLKR (UniProt Q8TER5) | 0.00222 | -0.149
ARIH1_Q9Y4X5_269_YQHLITNSFVECNR (UniProt Q9Y4X5) | 0.0732 | -0.0578
ARHGEF18_Q6ZSZ5_788_AVESCPDEEEGPFSLPEEERK (UniProt Q6ZSZ5) | 0.0507 | -0.106
ARHGAP25_P42331_302_FLHEIQLNCAVNK (UniProt P42331) | 0.0542 | 0.122
ARID1B_Q8NFD5_1141_QYIQYLFAFECK (UniProt Q8NFD5) | 0.0406 | 0.142
ARIH1_Q9Y4X5_304_QFCFNCGENWHDPVK (UniProt Q9Y4X5) | -0.0925 | 0.188
ARHGAP25_P42331_448_CFLTSAFQGANSSK (UniProt P42331) | -0.145 | -0.264
ARHGEF6_Q15052_25_KTICDPEEFLK (UniProt Q15052) | -0.021 | -0.308

Individual results from the entries so far.
APTX_Q7Z2E3_333_CHECQQLLPSIPQLK (UniProt Q7Z2E3) | probe-labelled cysteine peptide fold change (50 µM): -0.0506
ARIH2_O95376_183_DGVGVGVSCMAQDCPLR (UniProt O95376) | probe-labelled cysteine peptide fold change (50 µM): 0.0391
